Assay results taken from PubChem BioAssay AID504706 (National Center for Advancing Translational Sciences (NCATS), 2011).
Among all 320,000 compounds or so, about 200 (0.062%) were called active. Only results without a clear call are listed here; the source files them as inconclusive. Calls come from the whole dose curve; as a rule, active = well fitted activation curve with a large enough effect; inconclusive = small, poorly fitted or top-dose-only effect; inactive = no such curve, though single readings can be large or run the other way.

Experiment: qHTS assay for re-activators of p53 using a Luc reporter; note: nearly all actives have a fitted effect of over 45% in size
Details: H1299 p53-A138V BP100-luciferase reporter, luminescence, 24 h
Excerpt: The p53 tumor suppressor plays a key role in suppression of tumorigenesis and in human carcinogenesis. It is frequently found inactivated in human cancers, mainly by point mutation. These point mutations are found in a wide variety of human cancers and a majority of them affect the DNA binding domain of the protein. The point mutations either alter native p53 conformation or abolish DNA contact. Additionally, cancer cells with p53 mutations are more resistant to chemo-radiation therapies. In order to find activators to reactivate this important protein, a cell-based screen for p53-dependent luciferase-reporter expression was developed. A p53-null H1299 lung cancer cell line was stably co-transfected with a temperature sensitive p53 mutant, p53-A138V, and a p53-responsive BP100-luciferase reporter. This cell model has previously been characterized in a gene chip profiling experiment for p53 activation. […] At assay temperate, 37 deg C, basal reporter expression is very low and after the addition of detection reagent, a luminescent read-out is carried out. […]
5ul of 1000 cells per well are dispensed in all wells except column 4, into white solid-bottom TC-treated Kalypsys plates. […] Plates are incubated for 10 min at ambient room temperature and are then read on the ViewLux (Perkin Elmer) using a clear filter for a luminescent read-out.
Potency is the fitted concentration of half-maximal effect.

| SMILES | Potency |
| --- | --- |
| CP(=S)(Nn1cnnc1)Oc1ccccc1 (stereo unspecified) | inconclusive: 22.4 µM |
